Measurements reported in US20110294982A1 (Ablynx, published 2011).
These are yes or no findings as the source states them, for the method shown. Some binding calls cover weakened binding; strength is not graded here.

The chains behind the UniProt entries cited, without tags or fusion partners. Where a name states a change or a piece, a line headed by the entry shows the natural chain unless it says otherwise. Residues count along the entry.
UniProt P06756: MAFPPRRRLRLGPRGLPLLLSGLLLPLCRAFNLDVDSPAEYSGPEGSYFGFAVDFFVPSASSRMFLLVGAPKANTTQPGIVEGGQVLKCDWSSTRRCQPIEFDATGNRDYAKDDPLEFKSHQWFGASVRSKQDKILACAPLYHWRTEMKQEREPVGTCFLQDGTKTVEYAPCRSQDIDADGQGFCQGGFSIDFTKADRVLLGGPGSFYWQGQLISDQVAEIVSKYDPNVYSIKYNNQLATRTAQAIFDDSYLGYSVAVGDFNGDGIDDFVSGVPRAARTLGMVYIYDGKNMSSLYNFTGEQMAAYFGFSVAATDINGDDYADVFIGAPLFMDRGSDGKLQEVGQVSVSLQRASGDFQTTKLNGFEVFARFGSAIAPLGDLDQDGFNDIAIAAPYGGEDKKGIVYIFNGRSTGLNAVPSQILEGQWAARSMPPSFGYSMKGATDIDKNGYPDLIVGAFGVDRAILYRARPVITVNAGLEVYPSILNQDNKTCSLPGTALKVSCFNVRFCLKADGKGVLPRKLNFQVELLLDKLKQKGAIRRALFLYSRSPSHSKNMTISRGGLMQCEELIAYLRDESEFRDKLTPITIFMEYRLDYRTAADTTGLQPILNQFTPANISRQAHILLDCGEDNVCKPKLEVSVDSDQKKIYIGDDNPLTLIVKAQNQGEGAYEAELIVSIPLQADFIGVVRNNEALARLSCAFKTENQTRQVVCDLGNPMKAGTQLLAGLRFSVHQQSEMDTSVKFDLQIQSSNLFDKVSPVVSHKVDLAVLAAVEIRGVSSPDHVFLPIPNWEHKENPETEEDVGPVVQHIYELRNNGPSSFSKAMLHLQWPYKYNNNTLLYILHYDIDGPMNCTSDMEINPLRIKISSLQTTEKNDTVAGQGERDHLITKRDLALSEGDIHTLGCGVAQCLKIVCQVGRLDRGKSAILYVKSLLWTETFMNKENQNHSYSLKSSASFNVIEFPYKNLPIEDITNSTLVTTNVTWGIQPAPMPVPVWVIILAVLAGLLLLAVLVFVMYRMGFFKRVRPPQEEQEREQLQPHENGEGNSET
UniProt P08648, residues 42-995: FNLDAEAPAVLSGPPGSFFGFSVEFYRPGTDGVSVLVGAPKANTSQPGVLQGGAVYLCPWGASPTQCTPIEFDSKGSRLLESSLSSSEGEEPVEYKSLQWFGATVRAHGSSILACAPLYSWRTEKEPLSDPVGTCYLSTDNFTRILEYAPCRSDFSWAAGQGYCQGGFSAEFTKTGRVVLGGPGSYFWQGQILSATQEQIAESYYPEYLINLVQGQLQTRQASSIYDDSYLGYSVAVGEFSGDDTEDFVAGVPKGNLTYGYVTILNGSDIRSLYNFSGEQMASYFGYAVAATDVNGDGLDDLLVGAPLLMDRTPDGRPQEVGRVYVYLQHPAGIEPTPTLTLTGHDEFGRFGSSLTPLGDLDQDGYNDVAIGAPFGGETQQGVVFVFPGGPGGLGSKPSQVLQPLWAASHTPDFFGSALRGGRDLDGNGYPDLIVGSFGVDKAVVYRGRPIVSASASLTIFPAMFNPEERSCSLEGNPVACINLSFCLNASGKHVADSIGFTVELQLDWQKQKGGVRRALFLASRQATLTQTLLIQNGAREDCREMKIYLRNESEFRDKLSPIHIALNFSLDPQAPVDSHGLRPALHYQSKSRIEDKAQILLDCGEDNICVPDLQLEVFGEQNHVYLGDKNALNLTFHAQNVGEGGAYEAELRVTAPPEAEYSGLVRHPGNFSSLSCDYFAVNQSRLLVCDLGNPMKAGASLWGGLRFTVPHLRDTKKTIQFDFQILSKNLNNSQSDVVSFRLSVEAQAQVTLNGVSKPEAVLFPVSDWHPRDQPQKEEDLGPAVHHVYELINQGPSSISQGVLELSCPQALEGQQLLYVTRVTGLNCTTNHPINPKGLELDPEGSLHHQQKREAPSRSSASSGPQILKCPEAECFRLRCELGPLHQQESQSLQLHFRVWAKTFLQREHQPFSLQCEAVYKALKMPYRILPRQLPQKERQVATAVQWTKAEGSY
UniProt P05556: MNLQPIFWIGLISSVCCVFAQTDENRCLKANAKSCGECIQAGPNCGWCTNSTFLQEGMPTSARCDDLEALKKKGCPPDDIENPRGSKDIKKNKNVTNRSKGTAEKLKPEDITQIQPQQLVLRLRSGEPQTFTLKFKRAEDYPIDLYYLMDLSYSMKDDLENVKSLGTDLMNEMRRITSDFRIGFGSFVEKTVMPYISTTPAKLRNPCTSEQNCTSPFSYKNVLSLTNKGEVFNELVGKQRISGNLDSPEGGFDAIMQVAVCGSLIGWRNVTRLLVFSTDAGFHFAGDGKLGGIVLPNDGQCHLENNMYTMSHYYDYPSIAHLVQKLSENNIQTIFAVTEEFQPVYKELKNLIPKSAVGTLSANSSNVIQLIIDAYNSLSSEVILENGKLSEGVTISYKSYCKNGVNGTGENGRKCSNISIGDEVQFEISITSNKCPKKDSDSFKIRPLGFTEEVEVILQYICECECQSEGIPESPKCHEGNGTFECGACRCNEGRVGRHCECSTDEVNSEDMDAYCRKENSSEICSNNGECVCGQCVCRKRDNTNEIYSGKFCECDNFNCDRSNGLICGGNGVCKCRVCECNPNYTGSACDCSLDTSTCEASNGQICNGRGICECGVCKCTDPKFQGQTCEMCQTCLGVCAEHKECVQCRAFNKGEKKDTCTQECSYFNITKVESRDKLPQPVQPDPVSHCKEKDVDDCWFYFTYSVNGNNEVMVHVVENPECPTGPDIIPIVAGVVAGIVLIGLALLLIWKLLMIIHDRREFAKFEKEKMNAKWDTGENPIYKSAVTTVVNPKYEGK

T1: Human alpha3 (human) (UniProt P26006)
T1 sequence (looked up): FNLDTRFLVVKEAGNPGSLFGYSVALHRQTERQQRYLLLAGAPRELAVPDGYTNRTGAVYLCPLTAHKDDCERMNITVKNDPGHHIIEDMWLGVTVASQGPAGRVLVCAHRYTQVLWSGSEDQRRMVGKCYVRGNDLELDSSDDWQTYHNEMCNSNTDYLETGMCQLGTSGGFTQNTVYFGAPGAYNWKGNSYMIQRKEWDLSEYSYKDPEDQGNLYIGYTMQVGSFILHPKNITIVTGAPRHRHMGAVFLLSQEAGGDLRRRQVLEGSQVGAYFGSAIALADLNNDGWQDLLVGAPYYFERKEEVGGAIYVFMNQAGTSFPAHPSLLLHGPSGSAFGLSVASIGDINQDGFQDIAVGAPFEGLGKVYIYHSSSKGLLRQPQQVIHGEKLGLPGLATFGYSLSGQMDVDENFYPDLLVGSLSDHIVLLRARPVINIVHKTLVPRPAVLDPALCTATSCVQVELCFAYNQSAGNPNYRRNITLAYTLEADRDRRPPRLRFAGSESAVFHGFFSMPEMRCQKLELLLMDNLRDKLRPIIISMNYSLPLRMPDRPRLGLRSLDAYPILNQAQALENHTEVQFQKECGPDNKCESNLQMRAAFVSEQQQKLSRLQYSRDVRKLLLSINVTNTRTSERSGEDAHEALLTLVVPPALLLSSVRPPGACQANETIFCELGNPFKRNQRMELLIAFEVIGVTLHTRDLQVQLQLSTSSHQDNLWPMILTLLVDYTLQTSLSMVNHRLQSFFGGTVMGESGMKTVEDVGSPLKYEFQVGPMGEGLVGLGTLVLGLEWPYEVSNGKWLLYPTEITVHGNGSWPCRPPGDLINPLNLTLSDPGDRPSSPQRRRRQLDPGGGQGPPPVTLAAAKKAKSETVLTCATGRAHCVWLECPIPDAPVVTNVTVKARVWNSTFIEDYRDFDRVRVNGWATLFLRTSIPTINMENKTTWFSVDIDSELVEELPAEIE


Tests used:
[1] = target: T2, recombinant human alphavbeta6 (human, UniProt P06756 31-992; P18564 22-707, limits assumed); experiment: specificity ELISA on coated integrins, periplasmic extract
T2 construct: Bought, carrier free (R&D Systems 3817-AV/CF); also called aVb6

Human alpha5 (human) = Human alpha5 (human) (UniProt P08648); experiment: as above
Human alpha3 (human) = target: T1, Human alpha3 (human); experiment: as above
[2] = target: T3, α3β1 (VLA-3) integrin of cells (HeLa cells; K562A3 transfectants) (human) (UniProt P26006+P05556); experiment: immunofluorescence on fixed cryo-sections of K562 / K562-A3 cells, 10 ug/ml
[3] = target: recombinant VLA-3 (α3β1 integrin) (UniProt P26006); experiment: ELISA, integrin coated at 0.5 µg/well, absorbance at 450 nm
[4] = target: T3, α3β1 (VLA-3) integrin of cells (HeLa cells; K562A3 transfectants) (human); experiment: FACS on K562 and K562 cells expressing VLA-3
[5] = target: T3, α3β1 (VLA-3) integrin of cells (HeLa cells; K562A3 transfectants) (human); experiment: immunoprecipitation from HeLa cell lysates, Western blot with anti-α3 and anti-β1 antibodies
[6] = target: recombinant VLA-3 (α3β1 integrin) (UniProt P26006); experiment: ELISA on coated recombinant VLA-3
[7] = target: T3, α3β1 (VLA-3) integrin of cells (HeLa cells; K562A3 transfectants) (human); experiment: FACS on K562A3 cells, VHH at 300 µg/ml, FITC anti-HIS6

Binder | binding (Human alpha3 (human)) | further results
140-D10 (VHH) VHH: EVQLVESGGGLVQAGGSLRLSCAASGRIYSSNTMAWFRQAPGKEREFGSAIMWRGDATYTDYADSMKDRFTISRDNAKNTVYLQMNSLKPEDTAIYYCAAGGRRWNTRKDSSQYDYWGQGTQVTVSS | – | binding [1]: binds
242-A4 (VHH) VHH: EVQLVESGGGLVQAGGSLRLSCAASGGTFSTYAMGWFRQAPGEERQFVATITWTGYTYYTDSVKGRFTISRDNAKKTVYLRMDKLKPEDTAVYYCAADRRGYIETMSVNYDYWGQGTQVTVSS | – | binding (Human alpha5 (human)): binds
241-E1 (VHH) VHH: EVQLVESGGGLVQPGGSLRLSCAASGFTFSRYTMTWVRQAPGKEPEWVSSITSRGSSTNYADSVKGRFTISRDNAKNTLYLQMNSLKPGDTAMYYCAKSGTETWYDRTYWGQGTQVTVSS | – | binding (Human alpha5 (human)): binds
241-E3 (VHH) VHH: EVQLVESGGGLVQPGGSLRLSCAASGFTFSRYTMTWVRQAPGKEPEWVSSITSRGSSTNYADSAKGRFTISRDNAKNTLYLQMNSLKPGDTAMYYCAKSGTETWYDRTYWGQGTQVTVSS | – | binding (Human alpha5 (human)): binds
141-F1 (VHH) VHH: EVQLVESGGGLVKAGGSLRLSCAASGSIFSINTMAWYRQAPGKQREWITSITSRGTTRYABSVKGRFTISTSNDKSTVYLQMNSLKPEDTAVYYCAADKDGVIGYSVGYWGQGTQVTVSS | binds | –
141-B4 (VHH) VHH: EVQLVESGGGLVEAGGSLRLSCAASGSIFSINVMGWYRQAPGKQRELIGSITSRGTTRYTDSVKGRFTISRGNDKSTVYLQMNSLKPEDTAVYYCAABKGGVIGYSEGYWGQGTQVTVSS | binds | –
141-F6 (VHH) VHH: EVQLVESGGGLVEAGGSLRLSCAASGSIFSINVMGWYRQAPGKQRELIGSITSRGTTRYADSVKGRFTISRGNDMSTVYLQMNSLKPEDTAVYYCAABKGGVIGYSVGYWGQGTQVTVSS | binds | –
141-B11 (VHH) VHH: EVQLVESGGGLVQAGGSLQLSCATSGESFSIKAMGWYRQAPGNQREMVATITGTGKTNYADSVKGRFTISRDIGTLYLQMNSLKPEDTAVYYCNLLSWPAGDYWGQGTQVTVSS | binds | –
245-G1 (VHH) VHH: EVQLVESGGGLVQPGGSLRLSCAASGFAFSHYPMGWVRQAPGKGLEWVSGISASSIRTSYADSVKGRFTISRDHAKNTLYLQMNSLKVEDTAVYYCAQLRNYRYFGDMDYRGEGTLVTVSS | binds | –
141-D10 (VHH) VHH: EVQLVESGGGLVQAGGSPRLSCVASGRTFSRCAMGWFRQAPGKEREFVATISANGELIYYANFVEGRFTISRDNAKNTVYLQMNSLKPEDTAVYFCAARRTFTRSSNRNEYADWGQGTQVTVSS | binds | –
141-A4 (VHH) VHH: EVQLVESGGGLVQAGGSLTLSCAASGSVFSINAMGWYRQAPGKQRELVATITTRGTTNYVDAVKGRFTISKDNAKNTMYLQMNSLKPEDTAVYYCAABSPPYGMGSDLGYWGQGTQVTVSS | binds | –
141-D4 (VHH) VHH: EVQLVESGGGLVQAGGSLRLSCAASGRMFSPNVMGWFRQAPGDQREFVANIYSGGSTNYADTVKGRFTILSDNAKNTVYLQMTSLKPEDTGVYYCSVKRVGQSWFDSGYWGQGTQVTVSS | binds | –
245-E7 (VHH) VHH: EVQLVESGGGLVQAGGSLRLSCGASGSIGTFNIMGWYRQAPGKQREMVATMTSGGNTRYADSVKGRSTISRENAKKTITLQMNNLKPEDTGVYYCNLKTLTAWSTSTGDYWGQGTQVTVSS | binds | –
245-B1 (VHH) VHH: EVQLVESGGGLVQAGGSLKLSCAASGFTFDDYAIGWFRQAPGKEREGVSCISSPDGSTYLVDSVKGRFTVSSDNAKNTAYLQMNSLKPEDTAVYYCALRRGGSYYFCDPLTVYEYDYWGQGTQVTVSS | binds | –
245-D1 (VHH) VHH: EVQLVESGGALVQPGGSLRLSCAASGFAFSNTVMSWARQAPGKGLEWVSTISASGVRTRYADSVTGRFTISRDYAKRTLYLQMNSLSPEDTGVYYCVRRKSYTDYDPPRWDYDTWGQGTQVTVSS | binds | –
245-A1 (VHH) VHH: EVQLVESGGGLVQAGGSLRLSCAASGGTFRYQNMGWYRQAPGNEREWVASNWATGATAYADSVKGRFTISRDDAKNVVYLQMNNLKPEDTAVYYCNRLSRPWSWGQGTQVTVSS | binds | binding [2]: binds
245-E1 (VHH) VHH: EVQLVESGGGLVQAGGSLRLSCTVSITTYSFKRVAWHRQAPGNERELVAAIWNTDNTDYADSVKGRFTISRDNAKKTVYLQMNRLKPEDTAVYYCSANRGSYGTYWGQGTQVTVSS | binds | –
245-F7 (VHH) VHH: EVQLVDSGGRLVQPGDLLRLSCTTSGFASSGYVLGWFRQAPGKEREFVAAIIRSGGNTAYSDSVKGRFTISRDNAKNTVYLQMKSLKPEDTGIYYCARSSVLGRSPALYDLWGQGTQVTVSS | binds | –
VHH-H6 (VHH, Used with a Myc tag (captured/detected with anti-Myc 9E10) and a C-terminal His6 tag (detected with anti-HIS6 (C-term)); also called H6-VHH) VHH: QVQLQDSGGGLVQAGGSLRLSCEASGRTFSSYAMGWFRQPPGKEREWVSTISRSGSAIYAYPVKGRFTMSRDNAKNTVYLEMNSLKPEDTAVFYCAAARSGVPSSRPTDYDYWGQGTQVTVSS | – | binding [3]: binds; binding [4]: binds; binding [5]: binds; binding [6]: binds; binding [7]: binds
VHH-5 bihead (GS15) (VHH) EVQLVESGGGLVQAGGSLRLSCAASGGTFRYQNMGWYRQAPGNEREWVASNWATGATAYADSVKGRFTISRDDAKNVVYLQMNNLKPEDTAVYYCNRLSRPWGWGQGTQVTVSSGGGGSGGGGSGGGGSEVQLVESGGGLVQAGGSLRLSCAASGGTFRYQNMGWYRQAPGNEREWVASNWATGATAYADSVKGRFTISRDDAKNVVYLQMNNLKPEDTAVYYCNRLSRPWSWGQGTQVTVSS | – | binding [2]: binds
140-E5 (VHH) VHH: EVQLVESGVGLVQAGGSLRLSCAASGYTFNHNTMAWYRQAPGKQRELAASISSGGNTYYABSVKGRFTISRDNGNNTMYLQMNNLKPEDTAVYYCNWKDWPPNYKNDYWGQGTQVTVSS | – | binding [1]: binds
140-F2 (VHH) VHH: EVQLVESGGGLVQAGGSLRLSCAASGYTFNHNTMAWYRQAPVKQRELAASISSGGSTYYADSVKGRFTISRDNGNNTMYLQMNNLKPEDTAVYYCNWKDWPPNYTNDYWGQGTQVTVSS | – | binding [1]: binds
